Results taken from publication PMC9665845.
Results are given in words; binding and its absence hold for the method and conditions named. Some entries that bind do so weakly or less than the wild type.

The chains behind the UniProt entries cited, without tags or fusion partners.
UniProt P35222: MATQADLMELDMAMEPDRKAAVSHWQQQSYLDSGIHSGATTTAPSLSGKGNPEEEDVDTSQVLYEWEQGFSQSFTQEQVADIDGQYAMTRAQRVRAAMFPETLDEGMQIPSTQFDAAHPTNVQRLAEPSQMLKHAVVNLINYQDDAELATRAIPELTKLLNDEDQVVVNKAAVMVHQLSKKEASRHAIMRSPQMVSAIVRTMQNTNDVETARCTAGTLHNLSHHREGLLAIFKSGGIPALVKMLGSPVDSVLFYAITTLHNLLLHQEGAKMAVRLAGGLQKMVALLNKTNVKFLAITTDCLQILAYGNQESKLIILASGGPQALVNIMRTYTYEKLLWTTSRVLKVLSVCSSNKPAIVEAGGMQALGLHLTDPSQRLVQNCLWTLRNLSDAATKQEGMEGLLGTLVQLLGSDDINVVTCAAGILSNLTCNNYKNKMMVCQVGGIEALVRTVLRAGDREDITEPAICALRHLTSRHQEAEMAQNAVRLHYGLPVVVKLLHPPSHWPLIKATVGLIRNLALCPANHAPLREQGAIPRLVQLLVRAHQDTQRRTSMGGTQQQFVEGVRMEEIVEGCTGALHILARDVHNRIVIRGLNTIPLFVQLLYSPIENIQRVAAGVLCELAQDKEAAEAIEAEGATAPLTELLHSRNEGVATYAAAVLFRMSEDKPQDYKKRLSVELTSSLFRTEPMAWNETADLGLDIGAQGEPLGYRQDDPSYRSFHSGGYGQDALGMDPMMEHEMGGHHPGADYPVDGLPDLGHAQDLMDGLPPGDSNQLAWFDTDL
UniProt Q92973: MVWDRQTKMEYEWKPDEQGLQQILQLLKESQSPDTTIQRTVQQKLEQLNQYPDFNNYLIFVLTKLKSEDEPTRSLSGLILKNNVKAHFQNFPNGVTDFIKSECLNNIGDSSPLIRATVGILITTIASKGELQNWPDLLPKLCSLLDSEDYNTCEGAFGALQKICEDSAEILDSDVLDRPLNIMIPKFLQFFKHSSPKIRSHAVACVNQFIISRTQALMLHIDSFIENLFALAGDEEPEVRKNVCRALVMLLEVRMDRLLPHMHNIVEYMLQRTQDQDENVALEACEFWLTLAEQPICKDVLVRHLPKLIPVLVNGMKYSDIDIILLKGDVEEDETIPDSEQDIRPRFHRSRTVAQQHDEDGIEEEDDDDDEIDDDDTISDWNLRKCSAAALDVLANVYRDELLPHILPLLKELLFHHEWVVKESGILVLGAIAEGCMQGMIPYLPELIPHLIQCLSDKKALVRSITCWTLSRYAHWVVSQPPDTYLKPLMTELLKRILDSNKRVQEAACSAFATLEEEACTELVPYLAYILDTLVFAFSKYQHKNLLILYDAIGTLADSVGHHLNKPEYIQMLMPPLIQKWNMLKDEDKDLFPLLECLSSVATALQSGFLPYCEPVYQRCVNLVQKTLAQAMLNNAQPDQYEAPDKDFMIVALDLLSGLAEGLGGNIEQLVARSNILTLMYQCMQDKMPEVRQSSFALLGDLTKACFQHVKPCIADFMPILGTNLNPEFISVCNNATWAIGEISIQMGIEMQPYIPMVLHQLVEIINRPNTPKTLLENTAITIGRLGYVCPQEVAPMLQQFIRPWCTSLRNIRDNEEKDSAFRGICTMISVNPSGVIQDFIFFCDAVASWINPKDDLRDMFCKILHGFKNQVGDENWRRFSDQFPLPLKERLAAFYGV

Tests used:
[1] = biological target: GST-human β-catenin (human) (UniProt P35222); assay: pull-down; GST-hβ-catenin on GT beads incubated with TNPO1 1 hr at 4°C, then RanQ69L-GTP or dialysis buffer + GTP added for 1 hr at 4°C; SDS-PAGE, Coomassie; both purified
[2] = biological target: GST-human β-catenin (human) (UniProt P35222); assay: pull-down; GST fusions immobilised on GT Sepharose beads, purified TNPO1 (GST removed) incubated 1 hr at 4°C; lysis buffer 50 mM Tris pH 7.4, 150 mM NaCl, 2 mM MgCl2, 10% glycerol, 0.05% NP-40, 1 mM DTT; SDS-PAGE, Coomassie; both purified

binding [1]: binds
binding [2]: binds
Substance: human Kap-β2/Transportin-1 (TNPO1), GST tag removed (from UniProt Q92973 1-898)
